Source: patent US20260201030A1, “ANTIBODY, ANTIBODY-DRUG CONJUGATE THEREOF AND USE THEREOF” (EVOPOINT BIOSCIENCES CO., LTD., priority 2021, published 2026)
Numbering of substitutions follows the chain as printed. Some of these results come from one statement about several compounds together.

B1: 25C7A5-HZ1: humanized anti-Claudin18.2 antibody, VH SEQ ID NO: 1, VL SEQ ID NO: 2, human IgG1/Kappa constant regions (antibody, V domains shown)
VH: QVQLVQSGAEVKKPGSSVKVSCKASGYTFTNYWLHWVRQAPGQGLEWMGMMHPISGSSNYAQKFQGRATLTVDKSTSTAYMELSSLRSEDTAVYYCARGLLSAMDYWGQGTLVTVSS
VL: EIVLTQSPATLSLSPGERATLSCKASENVKTYVSWYQQKPGQSPRLLIYEASNRYTGVPARFSGSGSATDFTLTISSLEPEDFAVYFCGQTYSFPPTFGQGTKVEIK
modifications: human IgG1/kappa constant regions
B2: 25C7A5-HZ2: humanized anti-Claudin18.2 antibody, VH SEQ ID NO: 3, VL SEQ ID NO: 2, human IgG1/Kappa constant regions (antibody, V domains shown)
VH: B1 VH with Q6E
VL: B1 VL
modifications: human IgG1/kappa constant regions

System: HEK293T-Claudin18.2 cells
Assay: Endocytic activity by FACS
Assay type: cell-based, human
Conditions: at 4 h, 37° C., antibody 10 μg/mL

Molecule	endocytosis rate [%]
B1	≥ 12
B2	≥ 12
